From ChEMBL document CHEMBL3988442, “University of Dundee, Small-Polar-MMV Screening Library” (2021).

T. brucei: 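Whole-parasite assay of Trypanosoma brucei over 72 hours; the read-out is not stated. Tested at 30 µM. Direction is inferred from retests: higher values go with stronger inhibition. Values scatter widely below zero; nearly all retest evidence comes from the higher of the two concentrations used. Size under these conditions: about 64,000 compounds, about 940 of them at 50% or above in at least one test.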
Toxoplasma: 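Assay of Toxoplasma gondii numbers, read through their beta-galactosidase reporter with a colour substrate. Concentration: 10 µM. Higher reads as fewer parasites (inferred from which compounds were picked for retests). Of about 67,000 compounds tested this way, about 260 (0.38%) reached 50% or more in at least one test.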
Leishmania in macrophages: 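Cell assay of Leishmania donovani living inside macrophages; the read-out is not stated. Tested at 30 µM. Higher reads as stronger inhibition (inferred: compounds with an IC50 in retests scored well above the rest). Size under these conditions: about 69,000 compounds, about 1,000 of them at 50% or above in at least one test.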

Values are the deposited “Percent Effect”, in %. The controls that fix the scale are not given in the record; negative values are as filed. Compounds were drawn at random from those tested, without regard to their results. Two or more numbers in one place are separate tests of the same structure; such repeats can differ widely. A dash means the value is not listed here; it may have been measured.

structure,T. brucei,Toxoplasma,Leishmania in macrophages
COc1ccnc(N2CCCN(C(=O)CCc3cnn(C)c3)CC2)n1,-6.512%,3.056%,-0.05297%
O=C(Nc1ccc(-n2cccn2)cc1)N1CCOCC(O)C1 (centres undefined),0.2447%,1.469%,5.89%
CC(C)(C)OC(=O)N(CCNS(=O)(=O)N1CCOCC1)C1CC1,-38%,-6.418%,14.83%
COCCN(Cc1nc2c(cnn2C)c(=O)[nH]1)Cc1ccco1,-28.02%,7.754%,9.358%
[H][C@@]12CCN(C[C@@H]1c1cc(-c3cccs3)nn1C)[C@@H](CNS(C)(=O)=O)C2,4.316%,-4.983%,19.45%
NC1(c2nc(-c3cccs3)cc(=O)[nH]2)CCCCC1,-47.67%,2.822%,-33.65%
O=C(NC1CCc2ccccc2C1)C1CCN(Cc2ccco2)CC1 (centres undefined),2.587%,10.78%,13.9%
CCCc1nnc(N2CCC(C3CCN(C)CC3)CC2)o1,-130.5%,-8.09%,0.1681%
CCc1nc(Cn2nc(C3CCNCC3)n(-c3ccccc3)c2=O)cs1,-32.22%,-3.464%,30.78%
O=C(O)C(F)(F)F.O=C(O)C(F)(F)F.[H][C@]12CCC[C@@H](CN(C)CCOC)[C@@]1([H])CN(Cc1ccc(OC)nc1)C2,-,-14.71%,37.08%
CC(Cn1cccn1)NC(=O)NCc1cccnc1 (centres undefined),-,10.41%,4.135%
Cc1ccc(CCCC(=O)N2CCC(=O)Nc3cccnc32)s1,-96.11%,-16.41%,13.79%
CCc1ccc(NC(=O)C2CCN(C(=O)COC)CC2)cc1,-5.802%,-11.62%,-16.07%
NC(=O)NC(=O)CCSCc1coc(-c2ccc(F)cc2)n1,-19.16%,8.663%,15.57%
CC(C)(C(=O)N1CCC(C(N)=O)C1)c1ccccc1F (centres undefined),-14.55%,-8.718%,-14.18%
Cn1ccnc1Sc1ccc(S(N)(=O)=O)cn1,-34.62%,7.093%,-16.43%
CCc1ccc(C(=O)N2CCC(O)(CN3CCOCC3)C(C)(C)C2)[nH]1 (centres undefined),-,-25.21%,6.176%
COc1ccc2c(ccn2CC(=O)N2CCCC2Cn2cccn2)c1 (centres undefined),-39.09%,4.872%,-2.719%
Cc1noc2ncc(C(=O)N3CCCC(n4ccnc4C)C3)cc12 (centres undefined),12.21%,2.548%,18.29%
[H][C@@]12CCN(Cc3ccsc3)[C@]1([H])CC[C@H](C(=O)NC1CC1)O2,-14.46%,-4.113%,-1.607%
O=c1c2cccc(F)c2ncn1CCN1CCNCC1,-44.39%,1.163%,8.283%
c1cc(CNCc2ccnc(N3CCCC3)c2)c2c(c1)OCCCO2,-14.27%,-10%,10.99%
Cc1nc(CN2CCCn3nc(CNC(=O)C4CCC4)cc3C2)co1,0.3328%,0.5677%,-3.31%
COCC(=O)N1CCC2(CC1)CCn1c(-c3cccc(OC)c3)cnc12,-60.43%,-1.223%,-6.804%
COCc1ccc(C(=O)N2CCc3c(ncnc3N3CCOCC3)C2)o1,-12.05%,3.435%,17.68%
CC(C)(C)c1nccc(N2CCN(C3CCS(=O)(=O)C3)CC2)n1 (centres undefined),-65.07%,19.78%,22.69%
Cc1ncsc1CN(C)Cc1cc2c(cc1OC(F)F)OCO2,-9.913%,0.5717%,9.52% and -14.45%
O=C(COc1ccc(-c2ccccc2)nc1)NCC1CC1,-17.12%,5.324%,3.251%
Cc1ccc(CS(=O)(=O)NCc2ccco2)cc1,-26.88%,-3.435%,28.31%
O=C(O)C(F)(F)F.[H][C@@]12OCCN(C(=O)c3cc(C)[nH]c3C)[C@@]1([H])CC[C@H]2Oc1ccccn1,-19.88%,-12.95%,-10%
O=C(CN1CCC(C(=O)c2cc(F)ccc2F)CC1)NC1CC1,-26.58%,6.951%,20.49%
O=C(O)c1nnn(-c2cccc(C(F)(F)F)c2)c1-c1ccncc1,-63.23%,15.26%,13.07% and 2.267%
Cc1ccc(CN2CCc3ncnc(-c4ccoc4)c3CC2)o1.O=C(O)C(F)(F)F,-9.43%,17.3%,-3.663%
CCS(=O)(=O)N1CCc2c(cccc2NC(=O)NCCOC)C1,21.97%,3.67%,13.13%
Cc1noc2ncc(S(=O)(=O)N3CCCC(C)(C)CC3)cc12,10.93%,0.03994%,12.37%
CC(C)Nc1nc2c(cc1C(=O)NCC1CC1)CCN(S(C)(=O)=O)CC2.O=C(O)C(F)(F)F,-12.58%,4.762%,-1.834%
CCCN(C(=O)CN1CCN(CC(C)O)CC1)C1=CCCCC1 (centres undefined),-20.03%,1.81%,26.04%
O=C(O)C1(Cc2cc(-c3ccccc3F)no2)CCOCC1,-15.22%,13.51%,15.41% and 1.347%
CCN1C(=O)C(C#N)=C(C)/C(=C/C2=Cc3ccccc3OC2)C1=O,-0.8204%,13.56%,13.27%
O=C(O)C(F)(F)F.[H][C@]12CCN(C(=O)Cc3ccc(F)cc3)C[C@@]1([H])OCCN(CCOC)C2,-34.82%,-2.63%,7.101%
CCc1cnc(N)nc1NCCc1ccc(OC)cc1OC,-0.9111%,-1.936%,11.56%
COc1ncccc1CN1Cc2nccn2CC(Cn2cccn2)C1 (centres undefined),-29.65%,-27.02%,47.72%
COCCc1noc(CN(C)c2nccc(C)n2)n1,-12.6%,-3.121%,-10.9%
CNc1cccc(C2CCCN(C(=O)c3cscn3)C2)n1 (centres undefined),3.38%,4.01%,21.33% and 15.51%
COc1ccccc1OCC(=O)NS(=O)(=O)c1ccc(Cl)cc1F,-37.75%,0.2528%,33.96%
O=C(Cc1cccnc1)N1CCC(OCc2ccccc2)CC1,38.96%,-4.718%,25.22%
O=C(NCC(F)(F)F)C1CSCN1S(=O)(=O)c1cccc(F)c1 (centres undefined),-77.52%,19.72%,-68.9%
O=C(O)C(F)(F)F.[H][C@@]12CCN(CC(=O)NC)C[C@]1([H])CN(C(=O)c1ccccc1C)C2,-31.13%,24.14%,13.92%

3 of the entries, repeated:

For Cc1noc2ncc(S(=O)(=O)N3CCCC(C)(C)CC3)cc12 the result was T. brucei: 10.93%; Toxoplasma: 0.03994%; Leishmania in macrophages: 12.37%.
For COc1ncccc1CN1Cc2nccn2CC(Cn2cccn2)C1 (centres undefined) the result was T. brucei: -29.65%; Toxoplasma: -27.02%; Leishmania in macrophages: 47.72%.
For [H][C@@]12CCN(C[C@@H]1c1cc(-c3cccs3)nn1C)[C@@H](CNS(C)(=O)=O)C2 the result was T. brucei: 4.316%; Toxoplasma: -4.983%; Leishmania in macrophages: 19.45%.